In patent US10233483B2, “Methods of targeted antibiotic susceptibility testing” (Qvella Corporation, priority 2013, dated 2019):
At least one compound was matched to its structure with a doubt left.

Test system: Klebsiella pneumoniae
Experiment: Antimicrobial sensitivity testing of bacteria in partially lysed then enriched whole blood, real-time RT-PCR of rRNA and tmRNA
Format: cell-based
Details: 8 ug/mL final concentration, 2 hours incubation at 37° C. after 2 hours pre-incubation, K. pneumoniae spiked whole blood enriched with TSB
Experimental: Unless any variation is specified, the following example pretreatment procedure which includes blood cell lysis step followed by 4 wash cycles was performed in experiments which required pretreatment of blood samples. 10 μL of Fluorinert™ was added to 2 mL siliconized microcentrifuge tubes (T3531, Sigma), followed by the addition of 500 μL of the blood cell lysis reagent. The blood cell lysis reagent consisted of 75 mg/mL saponin, 15 mg/mL SPS and 1% PPG. EDTA-treated human whole blood from healthy volunteers of 1 mL spiked with microbial cells was added to the tube containing the blood cell lysis reagent and the Fluorinert™, and mixed by inverting ten times and vortexing at low speeds for 10 sec. The final concentrations of the components in the mixture were 25 mg/mL saponin, 5 mg/mL SPS and 0.33% PPG. The tubes were centrifuged at 12,000 rpm for 1 min and 1.35 mL of the supernatant was removed, leaving 150 uL of the liquid supernatant, Fluorinert™ and the sedimented microbial I cells. The first wash cycles was performed by adding 1.35 mL of 0.8 mM phosphate buffer to the remaining liquid supernatant of 150 uL as described above, mixing by vortexing at low speed for 10 sec, centrifugation at 12,000 rpm for 1 min and removal of 1.35 mL of the supernatant, leaving 150 μL of the liquid supernatant, the Fluorinert™ and the sedimented microbial. […]

SMILES: CN(C)[C@@H]1C(O)=C(C(N)=O)C(=O)[C@@]2(O)C(O)=C3C(=O)c4c(O)cccc4[C@@](C)(O)[C@H]3C[C@@H]12 [tetracycline]
- rRNA and tmRNA RT-PCR signal in response to the antibiotic compared to without antibiotic (Non-treated) culture: reduction of rRNA and tmRNA
